Laboratory results reported in publication PMC7968666, “The pharmacokinetics and drug-drug interactions of ivermectin in Aedes aegypti mosquitoes” (PLoS Pathogens, 2021).

Experiment: Mosquito weight post feeding and weight progression over 72 h
Assay type: in vivo, Aedes aegypti
Conditions: human blood with 0.1 µg/ml IVM, listed as IVM

CCC(C)C1OC2(CCC1C)CC1CC(CC=C(C)C(OC3CC(OC)C(OC4CC(OC)C(O)C(C)O4)C(C)O3)C(C)C=CC=C3COC4C(O)C(C)=CC(C(=O)O1)C34O)O2 (stereo not shown) [ivermectin]
Mosquito weight (0 h post feeding, Batch 1, individual mosquitoes 1-20, combination plus 5 µg/ml KCZ): 5.017 mg and 3.572 mg and 5.592 mg and 4.669 mg and 4.994 mg and 3.599 mg and 4.392 mg and 4.176 mg and 4.146 mg and 3.330 mg and 4.196 mg and 5.275 mg and 4.179 mg and 4.616 mg and 4.690 mg and 4.171 mg and 4.842 mg and 3.381 mg and 5.195 mg and 4.558 mg
Mosquito weight (0 h post feeding, Batch 2, individual mosquitoes 1-20, combination plus 10 µg/ml RIF): 3.795 mg and 3.369 mg and 4.537 mg and 3.266 mg and 4.565 mg and 3.801 mg and 4.884 mg and 4.193 mg and 4.130 mg and 3.786 mg and 4.215 mg and 3.859 mg and 4.556 mg and 4.141 mg and 3.929 mg and 3.588 mg and 3.968 mg and 3.953 mg and 4.300 mg and 4.181 mg
Mosquito weight (0 h post feeding, Batch 3, individual mosquitoes 1-20, combination plus 10 µg/ml RTV): 4.551 mg and 5.437 mg and 4.711 mg and 3.903 mg and 6.381 mg and 4.462 mg and 5.720 mg and 5.295 mg and 4.498 mg and 4.376 mg and 5.186 mg and 3.766 mg and 4.386 mg and 5.523 mg and 4.450 mg and 4.273 mg and 4.241 mg and 4.811 mg and 4.742 mg and 4.802 mg
Mosquito weight (0 h post feeding, Batch 4, individual mosquitoes 1-20, combination plus 10 µg/ml PBO): 5.413 mg and 4.224 mg and 4.850 mg and 4.608 mg and 5.380 mg and 5.368 mg and 5.323 mg and 5.167 mg and 5.135 mg and 4.140 mg and 5.384 mg and 3.932 mg and 4.181 mg and 5.632 mg and 5.651 mg and 5.358 mg and 4.438 mg and 5.265 mg and 4.979 mg and 5.544 mg
Mosquito weight (6 h post feeding, Batch 1, individual mosquitoes 1-20, combination plus 5 µg/ml KCZ): 3.283 mg and 3.751 mg and 3.701 mg and 3.169 mg and 3.746 mg and 3.251 mg and 3.385 mg and 3.427 mg and 3.568 mg and 4.108 mg and 3.104 mg and 3.912 mg and 3.526 mg and 3.566 mg and 3.559 mg and 3.495 mg and 2.992 mg and 3.969 mg and 4.038 mg and 3.449 mg
Mosquito weight (6 h post feeding, Batch 2, individual mosquitoes 1-20, combination plus 10 µg/ml RIF): 3.212 mg and 3.802 mg and 3.205 mg and 3.664 mg and 3.074 mg and 3.056 mg and 3.158 mg and 3.511 mg and 3.089 mg and 3.412 mg and 3.963 mg and 3.328 mg and 3.169 mg and 2.830 mg and 3.319 mg and 3.192 mg and 3.394 mg and 3.421 mg and 3.071 mg and 3.266 mg
Mosquito weight (6 h post feeding, Batch 3, individual mosquitoes 1-20, combination plus 10 µg/ml RTV): 4.325 mg and 4.026 mg and 3.722 mg and 4.153 mg and 3.963 mg and 3.845 mg and 3.946 mg and 3.718 mg and 3.658 mg and 3.841 mg and 4.400 mg and 4.374 mg and 4.517 mg and 4.258 mg and 3.745 mg (2×) and 3.857 mg and 3.805 mg and 4.274 mg and 4.475 mg
Mosquito weight (6 h post feeding, Batch 4, individual mosquitoes 1-20, combination plus 10 µg/ml PBO): 4.158 mg and 4.242 mg and 4.596 mg and 4.339 mg and 3.824 mg and 4.143 mg and 4.505 mg and 3.991 mg and 3.450 mg and 3.822 mg and 3.528 mg and 3.945 mg and 3.735 mg and 4.634 mg and 4.475 mg and 3.883 mg and 3.983 mg and 4.177 mg and 3.869 mg and 4.031 mg
Mosquito weight (12 h post feeding, Batch 1, individual mosquitoes 1-20, combination plus 5 µg/ml KCZ): 3.447 mg and 3.000 mg and 3.477 mg and 3.260 mg and 3.698 mg and 3.473 mg (2×) and 3.102 mg and 2.871 mg and 2.836 mg and 3.011 mg and 2.308 mg and 3.090 mg and 3.509 mg and 3.483 mg and 3.417 mg and 2.956 mg and 3.332 mg and 3.578 mg and 2.936 mg
Mosquito weight (12 h post feeding, Batch 2, individual mosquitoes 1-20, combination plus 10 µg/ml RIF): 3.277 mg and 2.842 mg and 3.328 mg and 3.585 mg and 2.881 mg and 3.243 mg and 2.960 mg and 3.225 mg and 3.026 mg and 2.879 mg and 3.170 mg and 2.829 mg and 3.447 mg and 3.080 mg and 3.107 mg and 2.899 mg and 3.479 mg and 3.127 mg and 2.730 mg and 3.229 mg
Mosquito weight (12 h post feeding, Batch 3, individual mosquitoes 1-20, combination plus 10 µg/ml RTV): 3.563 mg and 4.087 mg and 3.545 mg and 3.859 mg and 4.347 mg and 4.407 mg and 4.094 mg and 3.777 mg and 3.798 mg and 5.418 mg and 4.019 mg and 3.912 mg and 3.891 mg and 4.477 mg and 3.923 mg and 3.825 mg and 4.202 mg and 4.851 mg and 4.304 mg and 3.595 mg
Mosquito weight (12 h post feeding, Batch 4, individual mosquitoes 1-20, combination plus 10 µg/ml PBO): 3.934 mg and 3.493 mg and 3.369 mg and 4.284 mg and 3.685 mg and 3.886 mg and 4.278 mg (2×) and 3.434 mg and 3.366 mg and 3.279 mg and 3.140 mg and 3.075 mg and 3.415 mg and 3.926 mg and 3.889 mg and 3.833 mg and 3.924 mg and 3.650 mg and 3.462 mg
Mosquito weight (24 h post feeding, Batch 1, individual mosquitoes 1-20, combination plus 5 µg/ml KCZ): 3.282 mg and 2.786 mg and 2.846 mg and 2.865 mg and 2.526 mg and 3.744 mg and 2.799 mg and 2.735 mg and 2.860 mg and 3.283 mg and 2.793 mg and 3.361 mg and 2.771 mg and 3.164 mg and 2.701 mg and 3.254 mg and 3.573 mg and 3.084 mg and 2.796 mg and 3.062 mg
Mosquito weight (24 h post feeding, Batch 2, individual mosquitoes 1-20, combination plus 10 µg/ml RIF): 2.275 mg and 2.839 mg and 2.001 mg and 2.013 mg and 2.497 mg and 2.622 mg and 2.465 mg and 2.533 mg and 3.122 mg and 2.471 mg and 2.221 mg and 2.556 mg and 2.757 mg and 3.077 mg and 2.536 mg and 3.017 mg and 2.478 mg and 3.120 mg and 2.508 mg and 3.070 mg
Mosquito weight (24 h post feeding, Batch 3, individual mosquitoes 1-20, combination plus 10 µg/ml RTV): 3.703 mg and 3.598 mg and 3.206 mg and 3.327 mg and 3.405 mg and 3.440 mg and 3.847 mg and 3.373 mg and 3.715 mg and 3.082 mg and 3.324 mg and 3.087 mg and 2.609 mg and 3.466 mg and 3.868 mg and 3.334 mg and 3.632 mg and 3.622 mg and 3.155 mg and 2.996 mg
Mosquito weight (24 h post feeding, Batch 4, individual mosquitoes 1-20, combination plus 10 µg/ml PBO): 3.685 mg and 3.161 mg and 3.647 mg and 3.037 mg and 2.995 mg and 3.398 mg and 3.359 mg and 3.091 mg and 2.877 mg and 3.249 mg and 3.472 mg and 2.594 mg and 3.437 mg and 3.456 mg and 3.489 mg and 3.115 mg and 3.328 mg and 3.360 mg and 3.885 mg and 3.481 mg
Mosquito weight (36 h post feeding, Batch 1, individual mosquitoes 1-20, combination plus 5 µg/ml KCZ): 3.104 mg and 2.768 mg and 2.628 mg and 2.840 mg and 2.190 mg and 1.937 mg and 1.796 mg and 2.865 mg and 2.386 mg and 2.294 mg and 2.476 mg and 2.320 mg and 3.075 mg and 3.173 mg and 3.117 mg and 3.032 mg and 2.329 mg and 3.159 mg and 2.464 mg and 2.675 mg
Mosquito weight (36 h post feeding, Batch 2, individual mosquitoes 1-20, combination plus 10 µg/ml RIF): 2.427 mg and 2.226 mg and 2.546 mg and 2.167 mg and 2.993 mg and 2.255 mg (2×) and 2.535 mg and 2.513 mg and 2.584 mg and 2.209 mg and 2.984 mg and 1.920 mg and 2.953 mg and 3.048 mg and 2.244 mg and 2.075 mg and 2.561 mg and 2.135 mg and 2.442 mg
Mosquito weight (36 h post feeding, Batch 3, individual mosquitoes 1-20, combination plus 10 µg/ml RTV): 2.701 mg and 2.714 mg and 2.133 mg and 3.433 mg and 2.806 mg and 2.871 mg and 2.840 mg and 3.278 mg and 2.790 mg and 3.064 mg and 2.541 mg and 3.067 mg and 2.841 mg and 2.808 mg and 2.780 mg and 3.117 mg and 2.904 mg and 3.255 mg and 2.920 mg and 2.619 mg
Mosquito weight (36 h post feeding, Batch 4, individual mosquitoes 1-20, combination plus 10 µg/ml PBO): 2.887 mg and 2.811 mg and 3.148 mg and 2.888 mg and 2.744 mg and 2.818 mg and 3.154 mg and 3.206 mg and 2.920 mg and 3.152 mg and 2.943 mg and 2.451 mg and 3.218 mg and 2.483 mg and 3.742 mg and 3.489 mg and 2.160 mg and 2.834 mg and 2.580 mg and 2.857 mg
Mosquito weight (48 h post feeding, Batch 1, individual mosquitoes 1-20, combination plus 5 µg/ml KCZ): 2.806 mg and 2.727 mg and 2.654 mg and 2.610 mg and 2.308 mg and 2.545 mg and 2.328 mg and 2.255 mg and 2.504 mg and 2.591 mg and 1.970 mg and 1.626 mg and 2.634 mg and 2.605 mg and 2.551 mg and 1.974 mg and 2.753 mg and 3.435 mg and 2.233 mg and 2.736 mg
Mosquito weight (48 h post feeding, Batch 2, individual mosquitoes 1-20, combination plus 10 µg/ml RIF): 2.361 mg and 2.382 mg and 1.923 mg and 2.173 mg and 1.936 mg and 2.122 mg and 1.887 mg and 2.024 mg and 2.031 mg and 2.226 mg and 1.896 mg and 1.894 mg and 1.651 mg and 2.319 mg and 2.068 mg and 2.257 mg and 2.242 mg and 2.260 mg and 1.939 mg and 2.221 mg
Mosquito weight (48 h post feeding, Batch 3, individual mosquitoes 1-20, combination plus 10 µg/ml RTV): 2.830 mg and 2.547 mg and 2.257 mg and 3.123 mg and 2.667 mg and 2.303 mg and 2.397 mg and 2.885 mg and 2.753 mg and 2.222 mg and 2.666 mg and 3.231 mg and 3.254 mg and 2.456 mg and 2.688 mg and 2.726 mg and 2.681 mg and 2.327 mg and 2.478 mg and 2.339 mg
Mosquito weight (48 h post feeding, Batch 4, individual mosquitoes 1-20, combination plus 10 µg/ml PBO): 2.715 mg and 2.519 mg and 2.885 mg and 2.469 mg and 2.720 mg and 2.692 mg and 2.566 mg and 2.406 mg and 2.710 mg and 2.629 mg and 2.809 mg and 2.459 mg and 2.723 mg and 2.899 mg and 2.826 mg and 2.829 mg and 2.606 mg and 2.437 mg and 3.080 mg and 2.132 mg
Mosquito weight (72 h post feeding, Batch 1, individual mosquitoes 1-20, combination plus 5 µg/ml KCZ): 2.286 mg and 1.887 mg and 1.924 mg and 2.516 mg and 2.068 mg and 1.820 mg and 2.085 mg and 1.940 mg and 1.781 mg and 2.375 mg and 1.321 mg and 2.252 mg and 2.339 mg and 2.262 mg and 1.976 mg and 2.513 mg and 2.173 mg and 2.131 mg and 2.087 mg and 1.851 mg
Mosquito weight (72 h post feeding, Batch 2, individual mosquitoes 1-20, combination plus 10 µg/ml RIF): 1.769 mg and 2.064 mg and 1.565 mg and 2.426 mg and 1.822 mg and 1.804 mg and 1.800 mg and 2.334 mg and 2.200 mg and 1.817 mg and 2.107 mg and 1.642 mg and 1.435 mg and 1.962 mg and 1.981 mg and 2.100 mg and 1.920 mg and 2.177 mg and 1.622 mg and 1.745 mg
Mosquito weight (72 h post feeding, Batch 3, individual mosquitoes 1-20, combination plus 10 µg/ml RTV): 1.614 mg and 1.875 mg and 2.037 mg and 2.180 mg and 2.119 mg and 2.448 mg and 2.545 mg and 2.406 mg and 2.032 mg and 2.236 mg and 2.670 mg and 2.309 mg and 2.019 mg and 2.606 mg and 2.328 mg and 2.378 mg and 2.001 mg and 1.955 mg and 1.741 mg and 2.293 mg
Mosquito weight (72 h post feeding, Batch 4, individual mosquitoes 1-20, combination plus 10 µg/ml PBO): 2.320 mg and 2.115 mg and 2.498 mg and 2.186 mg and 2.043 mg and 1.969 mg and 2.137 mg and 2.339 mg and 2.449 mg and 2.338 mg and 2.454 mg and 2.078 mg and 2.330 mg and 2.255 mg and 2.399 mg and 2.095 mg and 2.634 mg and 2.531 mg and 2.159 mg and 1.991 mg

Values joined by “and” are separate entries in the source; they are usually repeats but may differ in a detail not shown here. Equal entries are not always repeated.
